Paper doi:10.1101/2021.05.20.444955

Experiments:
Test in all cases: two-hybrid
[1] = molecular target: T1, SPD-5(C1), aa 927–1198, yeast two-hybrid fusion (C. elegans) (UniProt P91349)
T1 sequence: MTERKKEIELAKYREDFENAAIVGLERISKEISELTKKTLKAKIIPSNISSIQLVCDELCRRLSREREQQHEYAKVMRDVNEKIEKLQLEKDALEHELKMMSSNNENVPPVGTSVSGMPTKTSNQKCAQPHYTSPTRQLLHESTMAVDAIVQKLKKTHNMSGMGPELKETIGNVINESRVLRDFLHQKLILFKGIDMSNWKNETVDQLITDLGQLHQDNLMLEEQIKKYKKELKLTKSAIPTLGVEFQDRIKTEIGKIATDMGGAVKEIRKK

[2] = molecular target: T1, SPD-5(C1), aa 927–1198, yeast two-hybrid fusion (C. elegans); remark: listed apart in the source
[3] = molecular target: T2, SPD-5(C2), aa 1061–1198, yeast two-hybrid fusion (C. elegans) (UniProt P91349)
T2 sequence: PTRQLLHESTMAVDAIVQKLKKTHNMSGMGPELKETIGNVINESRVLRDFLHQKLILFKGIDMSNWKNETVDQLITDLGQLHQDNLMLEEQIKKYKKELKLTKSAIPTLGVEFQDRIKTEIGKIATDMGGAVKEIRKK

[4] = molecular target: T3, SPD-5(CL), C4 region aa 927–1060, yeast two-hybrid fusion (C. elegans) (UniProt P91349)
T3 sequence: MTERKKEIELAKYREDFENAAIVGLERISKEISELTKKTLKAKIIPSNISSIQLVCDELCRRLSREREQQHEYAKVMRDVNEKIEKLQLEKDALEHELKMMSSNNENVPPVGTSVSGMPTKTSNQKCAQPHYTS

Row | Substance | binding [1] | binding [2] | binding [3] | binding [4]
1 | PCMD-1, yeast two-hybrid fusion (C. elegans) | binds | binds | no binding | binds
2 | PCMD-1 N-terminal half region (aa 1–242), yeast two-hybrid fusion (C. elegans) (domain or fragment) | – | – | – | binds

Like-named read-outs stand apart in the source and are kept apart here. No constants are given. Whether binding was seen depends on the method and setting. For some assays here: Binding calls can cover weak binding; strength is not graded here. Sequences can lack the tags named with a protein.
